Source: the supplement of paper PMC12873370
“And” between values parts separate entries of the source, which are not always exact repeats. Identical values can stand only once. The list shows a part of the results. Repeats are few or missing, and single values can be far off.

Test system: PREPP (mouse prostate epithelium Trp53/Pten KO)
Assay: cell viability relative to untreated (fraction); higher = less growth inhibition
Settings: 5 µM; 3 days

Row | SMILES | cell viability
1 | CCCCOc1ccc(CC(=O)NO)cc1 | 0.969
2 | Cc1nc(N)sc1-c1ccnc(Nc2ccc(N3CCOCC3)cc2)n1 | 0.421
3 | COc1ccccc1C(=O)Nc1cc2c(cc1N1CCCC1)n(C)c(=O)n2C | 1.04
4 | N=C1NC(=O)/C(=C/c2ccc(O)cc2)S1 | 0.959
5 | C/C(=N\NC(=O)c1cccc(S(=O)(=O)N2CCOCC2)c1)c1cc(Cl)ccc1O | 0.739
6 | O=S(=O)(c1cccc2cnccc12)N1CCCNCC1 | 1.16
7 | C=CC(=O)c1ccc2ccccc2c1 | 1.18
8 | Cc1cn(CCN2CCN(c3ccccc3-c3cc(C#N)cc(C(=O)NCCCN4CCCC4)c3)CC2)c2ccccc12 | 1.03
9 | O=C(C=Cc1ccccc1)NC(NC(=S)Nc1ccc(Cl)cc1)C(Cl)(Cl)Cl (centres undefined) | 0.97
10 | Cc1cc(-c2nc(-c3ccc(OC(F)(F)F)cc3)no2)nn1Cc1ccnc(N2CCN(C3CC3)CC2)c1 | 1.1
11 | c1cc(-c2cnn3cc(-c4ccc(OCCN5CCCCC5)cc4)cnc23)ccn1 | 0.526 and 0.769
12 | Cc1ccc(NC(=O)CCCCCC(=O)Nc2ccccc2N)cc1 | 0.856
13 | CC(C)C(=O)SCCCCCCC(=O)Nc1nc(-c2ccccc2)cs1 | 0.891
14 | O=C(/C=C/c1ccc(CN(CCO)CCc2c[nH]c3ccccc23)cc1)NO | 0.616
15 | Nc1ccc(S(=O)(=O)NCCc2ccccc2)cc1 | 0.982
16 | Nc1cc(F)ccc1NC(=O)/C=C/c1cnn(C/C=C/c2ccccc2)c1 | 0.905
17 | Cc1cc(C)c(CNC(=O)c2cc(-c3ccc(N4CCN(C)CC4)nc3)cc3c2c(C)cn3C(C)C)c(=O)[nH]1 | 1.03
18 | CCS(=O)(=O)N1CCC([C@@H](C)n2c(C)c(C(=O)NCc3c(OC)cc(C)[nH]c3=O)c3ccccc32)CC1 | 0.814
19 | Nc1ccn([C@@H]2O[C@H](CO)[C@@H](O)C2(F)F)c(=O)n1 | 0.601
20 | O=C(O)c1ccccc1Nc1cccc(C(F)(F)F)c1 | 0.819

Row | SMILES | cell viability
21 | O=C(O)CNC(=O)c1nc(Cl)c2ccccc2c1O | 1.04
22 | O=C(CCCCCCC(=O)Nc1ccc(I)cc1)NO | 0.67
23 | N#Cc1c(-c2ccccc2)cc(-c2cc(Br)ccc2O)[nH]c1=O | 1.15
24 | CC(C)(CCCCCC(O)CCCCCC(C)(C)C(=O)O)C(=O)O | 0.838
25 | CCCOc1ccn2c(C(C)=O)cc(-c3ccccc3S(C)(=O)=O)c2c1 | 1.02
26 | O=C(CCCCCCC(=O)Nc1ccc([C@H]2O[C@@H](CSc3nc(-c4ccccc4)c(-c4ccccc4)o3)C[C@@H](c3ccc(CO)cc3)O2)cc1)NO | 1.06
27 | Nc1cc(F)ccc1NC(=O)c1ccc(CNC(=O)/C=C/c2cccnc2)cc1 | 0.839
28 | O=C1NC(=O)/C(=C/c2cccc(C(F)(F)F)c2)S1 | 0.795
29 | O=C(c1cncc(Br)c1)N1CCC(N2CCCC2)CC1 | 0.946
30 | O=C(NCc1ccncc1)C12CC3CC(C1)CC(c1ccc(Cl)cc1)(C3)C2 | 0.919
31 | O=C(CCCCCCNC(=O)c1cnc(N(c2ccccc2)c2ccccc2Cl)nc1)NO | 0.887
32 | O=P(O)(O)OC(CO)CO | 0.951
33 | Cc1cc(Nc2cc(CN3CCOCC3)c3nc(C)c(Cc4ccc(Cl)cc4F)n3n2)n[nH]1 | 0.805
34 | CCC(C)SSc1ncc[nH]1 (centres undefined) | 0.823
35 | O=C(NCC(=O)N1CCCC1)Nc1ccc2cnccc2c1 | 1.13
36 | O=c1ncccn1[C@@H]1O[C@H](CO)[C@@H](O)[C@H]1O | 0.936
37 | Nc1ccccc1NC(=O)c1ccc(CNc2nccc(-c3cccnc3)n2)cc1 | 0.729
38 | Cn1ncnc1[C@@H]1c2n[nH]c(=O)c3cc(F)cc(c23)N[C@H]1c1ccc(F)cc1 | 0.835
39 | COc1cccc2c1c(O)c(C(=O)N(C)c1ccc(C(F)(F)F)cc1)c(=O)n2C | 0.909
